Measured values taken from article PMC10929182.
No constants are given. Whether binding was seen depends on the method and setting. Binding seen in cells or lysates may run through a third protein. These calls come from enrichment with a bait or labelling near it, and not all partners need be listed.

The chains behind the UniProt entries cited, without tags or fusion partners.
UniProt P09874: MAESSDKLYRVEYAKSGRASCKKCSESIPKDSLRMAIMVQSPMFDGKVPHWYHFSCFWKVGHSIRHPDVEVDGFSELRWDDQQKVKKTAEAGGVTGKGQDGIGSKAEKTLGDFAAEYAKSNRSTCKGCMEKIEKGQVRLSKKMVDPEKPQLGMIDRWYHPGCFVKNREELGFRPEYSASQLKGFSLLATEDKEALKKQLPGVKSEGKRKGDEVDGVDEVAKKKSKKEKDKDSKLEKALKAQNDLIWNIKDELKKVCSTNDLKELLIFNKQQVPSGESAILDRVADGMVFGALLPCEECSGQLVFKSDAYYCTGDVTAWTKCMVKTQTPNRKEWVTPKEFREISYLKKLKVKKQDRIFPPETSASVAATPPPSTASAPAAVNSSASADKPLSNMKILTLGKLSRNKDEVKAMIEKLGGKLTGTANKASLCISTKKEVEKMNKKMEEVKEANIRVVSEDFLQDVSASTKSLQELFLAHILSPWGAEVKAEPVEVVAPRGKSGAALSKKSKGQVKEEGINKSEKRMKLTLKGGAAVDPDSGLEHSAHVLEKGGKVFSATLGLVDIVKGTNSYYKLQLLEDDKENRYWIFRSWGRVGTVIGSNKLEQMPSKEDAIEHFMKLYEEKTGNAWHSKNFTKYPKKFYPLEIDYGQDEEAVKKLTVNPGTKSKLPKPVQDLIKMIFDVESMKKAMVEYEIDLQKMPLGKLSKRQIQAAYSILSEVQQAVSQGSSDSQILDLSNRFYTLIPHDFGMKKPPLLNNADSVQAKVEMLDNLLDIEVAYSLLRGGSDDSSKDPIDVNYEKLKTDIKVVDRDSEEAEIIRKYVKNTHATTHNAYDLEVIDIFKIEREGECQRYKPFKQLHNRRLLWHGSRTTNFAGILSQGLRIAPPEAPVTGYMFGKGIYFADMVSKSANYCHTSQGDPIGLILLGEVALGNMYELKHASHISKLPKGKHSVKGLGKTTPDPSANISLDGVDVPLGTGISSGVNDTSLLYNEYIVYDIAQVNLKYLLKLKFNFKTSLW
UniProt P34058: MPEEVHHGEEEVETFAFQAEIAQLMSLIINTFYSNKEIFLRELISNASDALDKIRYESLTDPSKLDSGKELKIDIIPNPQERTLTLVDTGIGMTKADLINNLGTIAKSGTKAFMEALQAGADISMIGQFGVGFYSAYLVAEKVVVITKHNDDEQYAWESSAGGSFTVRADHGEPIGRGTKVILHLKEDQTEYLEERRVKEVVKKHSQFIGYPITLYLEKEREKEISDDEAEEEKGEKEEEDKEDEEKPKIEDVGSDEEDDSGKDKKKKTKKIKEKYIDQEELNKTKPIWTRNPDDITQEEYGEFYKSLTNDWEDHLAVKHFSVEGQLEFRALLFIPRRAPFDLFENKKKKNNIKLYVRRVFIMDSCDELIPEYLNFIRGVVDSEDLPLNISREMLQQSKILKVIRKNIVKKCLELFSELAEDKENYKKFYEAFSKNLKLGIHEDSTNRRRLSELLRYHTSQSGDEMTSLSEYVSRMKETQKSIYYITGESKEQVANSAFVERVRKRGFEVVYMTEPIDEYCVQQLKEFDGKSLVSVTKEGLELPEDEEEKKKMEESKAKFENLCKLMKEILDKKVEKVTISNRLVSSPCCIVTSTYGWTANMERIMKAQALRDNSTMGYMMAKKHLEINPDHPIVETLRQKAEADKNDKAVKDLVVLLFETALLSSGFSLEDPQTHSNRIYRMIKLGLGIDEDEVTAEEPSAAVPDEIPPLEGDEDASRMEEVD

Target: PARP1 overexpressed from adenovirus (Ad-PARP1) in neonatal rat cardiomyocytes (UniProt P09874)
Test: affinity purification with mass spectrometry; NRCMs infected with Ad-PARP1 for 48 h; protein extracts immunoprecipitated with IgG or PARP1 antibody; eluted proteins measured by LC-MS/MS

- binding: binds
Substance: Heat Shock Protein 90 Alpha Family Class B Member 1 (HSP90AB1), endogenous in neonatal rat cardiomyocytes (from UniProt P34058 1-724)
